In the supplement of paper PMC10994270:
The other results are listed elsewhere or left out.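 How the source made its calls: active = probability of classifying as wild-type above 0.505; inactive = 0.505 or below.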 Repeats are few or missing, and single values can be far off.

Test system: SORL1-/- neural progenitor cells (hiPSC WTSIi004-B derived)
Assay: probability of classification as wild-type phenotype (neural network, relative to DMSO-treated WT vs SORL1-/- controls) (fraction); higher = more similar to wild-type morphology (phenotypic rescue)
Conditions: 24 h
[1] = 1000 nM, SORL1-/- sub-clone: WB8

**Q.** Which probability (300 nM, SORL1-/- sub-clone: WB8) does the source give for `O.O=P1(N(CCCl)CCCl)NCCCO1` (centres undefined) [Cyclophosphamide monohydrate] here?
**A.** The probability was active: 0.991.

**Q.** With `NCC1(CC(=O)O)CCCCC1` [Gabapentin] as the compound, how does the probability [1] read?
**A.** The probability was active: 0.784.

**Q.** With `O=C(O)CCCc1ccc(N(CCCl)CCCl)cc1` [Chloroambucil] as the compound, how does the probability [1] read?
**A.** The probability was active: 0.999.

**Q.** `CCC1=C[C@@H]2CN3CCc4c([nH]c5ccccc45)[C@@](C(=O)OC)(C2)[C@@H]13` [Catharanthine] was tested. Which probability (1000 nM, SORL1-/- sub-clone: WC7) did it give?
**A.** Its probability is active: 0.648.
